From the supplement of paper PMC10849652
Some of the results follow.

The chains behind the UniProt entries cited, without tags or fusion partners. Where a name states a change or a piece, a line headed by the entry shows the natural chain unless it says otherwise.
UniProt Q92625: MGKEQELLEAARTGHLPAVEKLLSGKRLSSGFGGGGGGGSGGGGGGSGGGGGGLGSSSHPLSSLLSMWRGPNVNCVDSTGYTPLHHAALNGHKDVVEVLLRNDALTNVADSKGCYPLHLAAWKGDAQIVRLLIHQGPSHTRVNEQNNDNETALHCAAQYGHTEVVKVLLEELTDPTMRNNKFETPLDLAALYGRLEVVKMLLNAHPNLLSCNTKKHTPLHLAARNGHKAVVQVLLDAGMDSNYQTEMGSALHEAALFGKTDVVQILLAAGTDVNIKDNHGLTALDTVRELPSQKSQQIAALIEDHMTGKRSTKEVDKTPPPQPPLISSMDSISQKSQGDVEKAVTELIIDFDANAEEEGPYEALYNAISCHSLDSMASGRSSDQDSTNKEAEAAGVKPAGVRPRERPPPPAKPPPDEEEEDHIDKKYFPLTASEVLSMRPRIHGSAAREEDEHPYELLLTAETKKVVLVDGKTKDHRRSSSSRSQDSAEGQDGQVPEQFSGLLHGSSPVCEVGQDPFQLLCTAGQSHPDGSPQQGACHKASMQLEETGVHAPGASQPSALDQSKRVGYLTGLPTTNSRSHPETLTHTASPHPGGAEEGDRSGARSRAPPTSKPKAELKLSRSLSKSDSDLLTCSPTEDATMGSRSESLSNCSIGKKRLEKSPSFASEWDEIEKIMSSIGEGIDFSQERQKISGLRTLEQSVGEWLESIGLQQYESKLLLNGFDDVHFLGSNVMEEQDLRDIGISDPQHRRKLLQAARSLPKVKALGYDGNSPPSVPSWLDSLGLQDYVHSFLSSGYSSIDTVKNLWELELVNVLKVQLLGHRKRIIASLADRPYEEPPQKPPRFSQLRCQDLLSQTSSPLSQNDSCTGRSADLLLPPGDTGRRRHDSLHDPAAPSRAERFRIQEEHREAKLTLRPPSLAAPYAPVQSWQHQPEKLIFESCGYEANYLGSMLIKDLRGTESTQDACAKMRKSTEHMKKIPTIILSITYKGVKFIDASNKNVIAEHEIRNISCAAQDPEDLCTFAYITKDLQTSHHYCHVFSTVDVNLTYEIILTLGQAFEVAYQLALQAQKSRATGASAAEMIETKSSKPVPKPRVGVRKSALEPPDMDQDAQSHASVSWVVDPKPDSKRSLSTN
UniProt Q9NRW3: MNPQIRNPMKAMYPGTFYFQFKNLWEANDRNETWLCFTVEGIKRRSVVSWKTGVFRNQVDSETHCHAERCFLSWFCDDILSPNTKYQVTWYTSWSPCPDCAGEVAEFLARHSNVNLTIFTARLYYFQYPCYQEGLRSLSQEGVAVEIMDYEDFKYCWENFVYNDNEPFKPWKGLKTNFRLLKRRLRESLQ
UniProt Q92688: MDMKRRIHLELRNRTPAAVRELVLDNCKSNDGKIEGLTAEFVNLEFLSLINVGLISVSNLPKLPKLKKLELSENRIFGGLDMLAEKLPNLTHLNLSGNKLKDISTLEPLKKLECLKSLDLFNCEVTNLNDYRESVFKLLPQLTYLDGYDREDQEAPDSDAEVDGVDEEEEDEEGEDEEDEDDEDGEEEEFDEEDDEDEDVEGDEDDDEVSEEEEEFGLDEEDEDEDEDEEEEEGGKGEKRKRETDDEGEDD
UniProt Q9UKG1: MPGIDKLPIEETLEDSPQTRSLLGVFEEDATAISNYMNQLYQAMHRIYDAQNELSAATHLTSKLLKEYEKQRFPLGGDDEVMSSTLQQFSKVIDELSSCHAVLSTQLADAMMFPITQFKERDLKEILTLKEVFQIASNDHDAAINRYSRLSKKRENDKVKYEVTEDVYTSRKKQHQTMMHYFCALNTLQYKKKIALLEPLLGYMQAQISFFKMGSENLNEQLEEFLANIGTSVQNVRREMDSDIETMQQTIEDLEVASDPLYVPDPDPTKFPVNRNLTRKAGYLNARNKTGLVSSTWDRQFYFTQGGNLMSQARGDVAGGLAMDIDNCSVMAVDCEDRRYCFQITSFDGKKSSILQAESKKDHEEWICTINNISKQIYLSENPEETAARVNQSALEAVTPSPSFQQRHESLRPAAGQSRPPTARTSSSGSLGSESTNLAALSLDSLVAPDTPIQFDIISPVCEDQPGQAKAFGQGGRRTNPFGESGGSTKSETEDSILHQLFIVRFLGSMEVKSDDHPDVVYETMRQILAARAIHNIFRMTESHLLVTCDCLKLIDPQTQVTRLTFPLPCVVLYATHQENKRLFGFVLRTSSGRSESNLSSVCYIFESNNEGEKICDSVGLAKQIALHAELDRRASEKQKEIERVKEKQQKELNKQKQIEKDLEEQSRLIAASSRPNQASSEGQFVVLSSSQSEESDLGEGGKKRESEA
UniProt Q9BZZ5: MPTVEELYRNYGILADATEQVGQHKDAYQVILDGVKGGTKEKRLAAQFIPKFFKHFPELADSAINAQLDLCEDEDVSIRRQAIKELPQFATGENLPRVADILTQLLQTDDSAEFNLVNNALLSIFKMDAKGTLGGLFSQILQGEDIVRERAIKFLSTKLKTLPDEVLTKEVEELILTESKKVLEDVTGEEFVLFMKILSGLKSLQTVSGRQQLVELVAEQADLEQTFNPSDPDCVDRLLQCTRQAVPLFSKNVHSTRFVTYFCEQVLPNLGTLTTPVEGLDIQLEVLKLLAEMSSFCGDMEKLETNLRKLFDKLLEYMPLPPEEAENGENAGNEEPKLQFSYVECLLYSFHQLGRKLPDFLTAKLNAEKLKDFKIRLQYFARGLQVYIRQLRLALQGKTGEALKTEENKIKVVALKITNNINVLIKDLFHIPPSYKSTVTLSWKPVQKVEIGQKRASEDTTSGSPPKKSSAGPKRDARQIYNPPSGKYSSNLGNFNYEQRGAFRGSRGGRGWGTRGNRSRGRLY
UniProt P53367: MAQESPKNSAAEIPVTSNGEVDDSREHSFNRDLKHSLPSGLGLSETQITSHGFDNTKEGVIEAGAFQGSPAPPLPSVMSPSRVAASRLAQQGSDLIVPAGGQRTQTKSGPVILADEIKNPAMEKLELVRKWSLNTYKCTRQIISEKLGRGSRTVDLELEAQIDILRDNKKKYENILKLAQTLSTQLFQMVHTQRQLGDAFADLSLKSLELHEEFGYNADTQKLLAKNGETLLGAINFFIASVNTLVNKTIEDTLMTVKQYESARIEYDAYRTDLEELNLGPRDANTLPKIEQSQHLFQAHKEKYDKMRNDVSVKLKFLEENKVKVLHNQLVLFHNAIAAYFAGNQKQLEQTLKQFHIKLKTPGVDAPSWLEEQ
UniProt Q92974: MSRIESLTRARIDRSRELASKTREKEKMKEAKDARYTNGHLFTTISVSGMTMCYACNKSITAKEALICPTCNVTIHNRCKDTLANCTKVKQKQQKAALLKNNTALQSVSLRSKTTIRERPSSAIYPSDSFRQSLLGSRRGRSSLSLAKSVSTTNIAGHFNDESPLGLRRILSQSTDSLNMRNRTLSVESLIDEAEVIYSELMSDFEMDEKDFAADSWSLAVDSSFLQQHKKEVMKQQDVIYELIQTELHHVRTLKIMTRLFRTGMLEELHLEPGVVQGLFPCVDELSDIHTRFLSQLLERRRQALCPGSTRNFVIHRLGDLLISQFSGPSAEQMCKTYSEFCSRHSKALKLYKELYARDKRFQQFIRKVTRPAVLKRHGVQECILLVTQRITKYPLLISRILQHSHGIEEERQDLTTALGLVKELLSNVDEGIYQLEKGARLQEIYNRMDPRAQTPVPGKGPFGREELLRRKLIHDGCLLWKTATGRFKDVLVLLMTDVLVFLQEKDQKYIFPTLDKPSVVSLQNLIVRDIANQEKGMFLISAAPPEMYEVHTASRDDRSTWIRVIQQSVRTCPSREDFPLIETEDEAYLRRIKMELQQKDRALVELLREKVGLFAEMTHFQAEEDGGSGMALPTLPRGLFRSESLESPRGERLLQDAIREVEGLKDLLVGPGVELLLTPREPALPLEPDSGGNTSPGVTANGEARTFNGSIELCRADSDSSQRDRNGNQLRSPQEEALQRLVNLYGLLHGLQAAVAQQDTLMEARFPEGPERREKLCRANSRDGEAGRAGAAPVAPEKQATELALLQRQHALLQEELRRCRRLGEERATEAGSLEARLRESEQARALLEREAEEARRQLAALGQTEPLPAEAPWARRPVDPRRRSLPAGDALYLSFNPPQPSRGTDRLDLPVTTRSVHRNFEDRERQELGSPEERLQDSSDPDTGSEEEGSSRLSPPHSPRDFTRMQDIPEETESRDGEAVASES
UniProt P56377: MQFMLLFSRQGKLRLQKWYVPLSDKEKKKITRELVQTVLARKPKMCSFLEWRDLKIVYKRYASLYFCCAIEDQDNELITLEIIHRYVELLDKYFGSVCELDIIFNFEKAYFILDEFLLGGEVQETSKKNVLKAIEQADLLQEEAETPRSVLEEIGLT
UniProt Q9Y6D6: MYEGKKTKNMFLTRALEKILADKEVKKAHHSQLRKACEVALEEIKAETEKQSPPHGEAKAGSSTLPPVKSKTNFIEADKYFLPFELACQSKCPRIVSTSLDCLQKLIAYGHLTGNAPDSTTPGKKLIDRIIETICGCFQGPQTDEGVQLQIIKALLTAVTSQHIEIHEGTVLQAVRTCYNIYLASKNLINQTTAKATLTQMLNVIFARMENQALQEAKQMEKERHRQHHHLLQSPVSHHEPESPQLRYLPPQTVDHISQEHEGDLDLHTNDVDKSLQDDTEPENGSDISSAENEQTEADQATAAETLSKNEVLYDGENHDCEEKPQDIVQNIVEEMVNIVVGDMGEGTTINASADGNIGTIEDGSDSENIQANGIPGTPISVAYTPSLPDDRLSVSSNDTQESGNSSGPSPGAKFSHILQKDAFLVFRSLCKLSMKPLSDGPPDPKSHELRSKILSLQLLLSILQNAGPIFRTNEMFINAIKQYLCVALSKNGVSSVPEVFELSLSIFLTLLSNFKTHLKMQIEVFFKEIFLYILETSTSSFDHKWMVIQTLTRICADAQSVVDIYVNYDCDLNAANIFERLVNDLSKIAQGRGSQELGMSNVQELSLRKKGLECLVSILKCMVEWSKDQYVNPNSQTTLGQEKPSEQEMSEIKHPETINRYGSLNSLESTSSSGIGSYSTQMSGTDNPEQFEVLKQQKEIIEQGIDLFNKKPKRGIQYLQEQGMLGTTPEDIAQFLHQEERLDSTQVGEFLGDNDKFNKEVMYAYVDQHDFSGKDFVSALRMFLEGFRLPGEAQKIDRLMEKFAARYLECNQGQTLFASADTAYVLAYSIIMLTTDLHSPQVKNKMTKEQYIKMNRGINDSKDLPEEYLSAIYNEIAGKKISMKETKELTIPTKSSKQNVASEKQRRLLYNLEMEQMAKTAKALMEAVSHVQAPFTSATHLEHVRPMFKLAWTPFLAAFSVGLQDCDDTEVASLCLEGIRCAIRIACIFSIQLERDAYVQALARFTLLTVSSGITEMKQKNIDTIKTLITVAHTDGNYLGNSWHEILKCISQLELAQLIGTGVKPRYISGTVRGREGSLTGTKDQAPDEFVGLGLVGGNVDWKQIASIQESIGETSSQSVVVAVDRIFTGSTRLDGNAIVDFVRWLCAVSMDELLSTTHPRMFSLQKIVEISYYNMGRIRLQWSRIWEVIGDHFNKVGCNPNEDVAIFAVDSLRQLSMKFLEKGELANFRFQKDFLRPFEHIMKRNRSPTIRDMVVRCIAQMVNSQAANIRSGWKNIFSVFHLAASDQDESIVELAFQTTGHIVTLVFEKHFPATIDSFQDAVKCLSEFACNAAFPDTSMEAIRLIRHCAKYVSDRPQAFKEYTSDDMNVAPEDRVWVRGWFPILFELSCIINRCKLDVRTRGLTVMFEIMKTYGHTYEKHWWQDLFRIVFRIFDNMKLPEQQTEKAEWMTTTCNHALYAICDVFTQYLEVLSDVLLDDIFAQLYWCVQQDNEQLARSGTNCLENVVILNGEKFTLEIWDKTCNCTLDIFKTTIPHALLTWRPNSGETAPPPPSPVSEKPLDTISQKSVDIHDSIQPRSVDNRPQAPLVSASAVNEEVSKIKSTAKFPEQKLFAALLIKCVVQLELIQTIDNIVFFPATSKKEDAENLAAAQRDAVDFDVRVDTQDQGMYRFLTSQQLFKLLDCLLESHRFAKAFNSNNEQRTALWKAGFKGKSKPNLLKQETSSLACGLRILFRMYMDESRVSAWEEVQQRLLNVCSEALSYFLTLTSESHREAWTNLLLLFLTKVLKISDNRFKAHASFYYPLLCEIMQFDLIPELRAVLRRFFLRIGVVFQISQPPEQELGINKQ
UniProt P02649, whole entry, looked up: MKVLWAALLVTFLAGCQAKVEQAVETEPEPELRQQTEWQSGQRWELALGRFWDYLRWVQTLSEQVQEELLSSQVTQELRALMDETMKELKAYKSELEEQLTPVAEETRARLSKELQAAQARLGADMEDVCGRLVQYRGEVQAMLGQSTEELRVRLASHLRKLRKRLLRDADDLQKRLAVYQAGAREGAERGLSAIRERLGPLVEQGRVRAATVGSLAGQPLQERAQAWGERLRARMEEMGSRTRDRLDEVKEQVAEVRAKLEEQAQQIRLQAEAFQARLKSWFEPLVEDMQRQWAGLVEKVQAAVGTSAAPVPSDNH

What was measured:
Experiment in all cases: log2 fold change, soluble protein after heating vs DMSO (PISA); higher = thermal stabilisation; K562 cells, 10 uM, 30 min; active = over 0.2 and 3.5 SD of the protein, either way, in both replicates (recomputed)
[1] = compound: COC1=CC=C(C=C1)CN2C=CC3=C2C=C(C=C3)C(=O)NO
Outline: (§1)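 Soluble protein was quantified by TMTpro 16plex LC-MS/MS after channel sums were equalised. It was obtained as the supernatant after 21,000xg for 90 min from pooled aliquots of K562 cells (2×10^6 cells/mL, 10 μM compound, 30 min) heated for 3 min across 48°C-58°C and extracted in PBS with 0.5% NP-40 at 4°C. Thermal stability values are relative to control samples and come from duplicates. They are given as log2 fold changes.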

filanesib = compound: CON(C)C(=O)N1N=C(c2cc(F)ccc2F)S[C@@]1(CCCN)c1ccccc1 [filanesib]
Outline: as §1

zotarolimus = compound: CO[C@H]1C[C@@H]2CC[C@@H](C)[C@@](O)(O2)C(=O)C(=O)N2CCCC[C@H]2C(=O)O[C@H]([C@H](C)C[C@@H]2CC[C@H](n3cnnn3)[C@H](OC)C2)CC(=O)[C@H](C)/C=C(\C)[C@@H](O)[C@@H](OC)C(=O)[C@H](C)C[C@H](C)/C=C/C=C/C=C/1C [zotarolimus]
Outline: as §1

idasanutlin = compound: COc1cc(C(=O)O)ccc1NC(=O)[C@@H]1N[C@@H](CC(C)(C)C)[C@](C#N)(c2ccc(Cl)cc2F)[C@H]1c1cccc(Cl)c1F [idasanutlin]
Outline: as §1

alisertib = compound: COc1cc(Nc2ncc3c(n2)-c2ccc(Cl)cc2C(c2c(F)cccc2OC)=NC3)ccc1C(=O)O [alisertib]
Outline: as §1

[2] = compound: COc1cc2nc(-c3cc(F)ccc3O)nc(N[C@@H]3CNC[C@H]3C(C)(C)O)c2cc1OC
Outline: as §1

gefitinib = compound: COc1cc2ncnc(Nc3ccc(F)c(Cl)c3)c2cc1OCCCN1CCOCC1 [gefitinib]
Outline: as §1

[3] = compound: COc1cccc2cc(-c3nc([C@H]4CC[C@H](C(=O)O)CC4)n4ncnc(N)c34)[nH]c12
Outline: as §1

lapatinib = compound: CS(=O)(=O)CCNCc1ccc(-c2ccc3ncnc(Nc4ccc(OCc5cccc(F)c5)c(Cl)c4)c3c2)o1 [lapatinib]
Outline: as §1

pictilisib = compound: CS(=O)(=O)N1CCN(Cc2cc3nc(-c4cccc5[nH]ncc45)nc(N4CCOCC4)c3s2)CC1 [pictilisib]
Outline: as §1

Row | Target | log2 fold change [1] | log2 fold change (filanesib) | log2 fold change (zotarolimus) | log2 fold change (idasanutlin) | log2 fold change (alisertib) | log2 fold change [2] | log2 fold change (gefitinib) | log2 fold change [3] | log2 fold change (lapatinib) | log2 fold change (pictilisib)
1 | ANKS1A (UniProt Q92625) | inactive: -0.047 | inactive: -0.042 | inactive: 0.08 | inactive: -0.012 |  |  |  |  |  | 
2 | APOBEC3C (UniProt Q9NRW3) | inactive: -0.023 | inactive: 0.251 | inactive: 0.022 | inactive: 0.136 | inactive: -0.173 | inactive: -0.074 | inactive: -0.101 | inactive: -0.065 | inactive: 0.171 | inactive: 0.075
3 | ANXA2 isoform 2 (UniProt P07355) | inactive: -0.009 | inactive: -0.124 | inactive: 0.013 | inactive: -0.041 | inactive: 0.007 | inactive: -0.075 | inactive: 0.019 | inactive: -0.003 | inactive: -0.002 | inactive: -0.1
4 | ANP32B (UniProt Q92688) | inactive: -0.038 | inactive: -0.005 | inactive: 0.014 | inactive: -0.038 | inactive: -0.045 | inactive: 0.027 | inactive: 0.022 | inactive: 0.008 | inactive: -0.046 | inactive: 0.04
5 | ARF1 (UniProt P84077) | inactive: 0.138 | inactive: -0.061 | inactive: 0.072 | inactive: 0.027 | inactive: -0.132 | inactive: -0.02 | inactive: -0.204 | inactive: 0.076 | inactive: 0.019 | 
6 | APPL1 (UniProt Q9UKG1) | inactive: -0.024 | inactive: 0.069 | inactive: 0.018 | inactive: -0.076 | inactive: -0.001 | inactive: 0.079 | inactive: -0.106 | inactive: -0.023 | inactive: -0.025 | inactive: 0.033
7 | API5 isoform 2 (UniProt Q9BZZ5) | inactive: 0.036 | inactive: -0.062 | inactive: 0.052 | inactive: -0.029 | inactive: 0.045 | inactive: 0.046 | inactive: 0.039 | inactive: 0.037 | inactive: -0.114 | inactive: 0.068
8 | ARFIP1 (UniProt P53367) | inactive: 0.354 | inactive: -0.049 | inactive: -0.021 | inactive: 0.094 | inactive: 1.31 | inactive: 0.042 | inactive: -0.091 | inactive: -0.005 | inactive: -0.076 | inactive: -0.076
9 | ANXA11 (UniProt P50995) | inactive: 0.004 | inactive: -0.113 | inactive: 0.043 | inactive: -0.064 | inactive: -0.01 | inactive: 0.068 | inactive: 0.041 | inactive: 0.004 | inactive: -0.002 | inactive: 0.007
10 | ARHGDIB (UniProt P52566) | inactive: -0.012 | inactive: -0.016 | inactive: 0.08 | inactive: -0.001 | inactive: 0.009 | inactive: 0.128 | inactive: 0.033 | inactive: 0.023 | inactive: -0.107 | inactive: 0.058
11 | ARAF (UniProt P10398) | inactive: 0 | inactive: -0.022 | inactive: 0.06 | inactive: 0.006 | inactive: 0.076 | active: -0.274 | inactive: 0.076 | inactive: 0.06 | inactive: 0.076 | inactive: -0.175
12 | ANXA7 (UniProt P20073) | inactive: 0.051 | inactive: -0.028 | inactive: 0.053 | inactive: -0.027 | inactive: -0.081 | inactive: -0.001 | inactive: -0.006 | inactive: -0.019 | inactive: 0.019 | inactive: 0.035
13 | ARHGEF2 (UniProt Q92974) | inactive: 0.048 | inactive: 0.466 | inactive: 0.119 | inactive: 0.249 | inactive: -0.137 | inactive: -0.166 | inactive: -0.03 | inactive: -0.274 | inactive: 0.157 | inactive: -0.077
14 | AP1S2 (UniProt P56377) | inactive: -0.018 | inactive: -0.016 | inactive: 0.02 | inactive: 0.223 | inactive: -0.02 | inactive: 0.043 | inactive: 0.005 | inactive: -0.016 | inactive: -0.044 | inactive: 0.035
15 | APOH (UniProt P02749) | inactive: 0.03 | inactive: -0.156 | inactive: -0.696 | active: 1.05 | inactive: 0.151 | inactive: -0.059 | inactive: -0.307 | inactive: 0.529 | inactive: -0.197 | inactive: -0.537
16 | AP5Z1 (UniProt O43299) | inactive: -0.332 | inactive: 0.065 | inactive: -0.05 | inactive: 0.098 | inactive: -0.081 | inactive: 0.167 | inactive: -0.018 | inactive: 0.05 | inactive: -0.092 | inactive: -0.081
17 | AP3D1 isoform 5 (UniProt O14617) | inactive: 0.029 | inactive: 0.023 | inactive: -0.03 | inactive: -0.017 | inactive: -0.026 | inactive: 0.007 | inactive: -0.02 | inactive: -0.043 | inactive: 0.021 | inactive: -0.028
18 | ANO6 isoform 2 (UniProt Q4KMQ2) | inactive: -0.027 | inactive: 0.002 | inactive: 0.056 | inactive: -0.005 | inactive: -0.096 | inactive: -0.016 | inactive: 0.019 | inactive: 0.046 | inactive: 0.001 | inactive: 0.002
19 | ANKRD54 (UniProt Q6NXT1) | inactive: -0.068 | inactive: -0.126 | inactive: -0.056 | inactive: 0.012 | inactive: 0.033 | inactive: -0.057 | inactive: -0.086 | inactive: 0.011 | inactive: 0.029 | inactive: -0.003
20 | AP1AR (UniProt Q63HQ0) | inactive: -0.056 | inactive: 0.078 | inactive: 0.009 | inactive: -0.025 | inactive: -0.125 | inactive: 0.021 | inactive: 0.115 | inactive: -0.009 | inactive: -0.059 | inactive: 0.096
21 | ARFIP2 (UniProt P53365) | inactive: -0.148 | inactive: -0.152 | inactive: -0.083 | inactive: 0.009 | inactive: 0.061 | inactive: -0.131 | inactive: -0.074 | inactive: 0.062 | inactive: -0.014 | inactive: -0.09
22 | ANKRD29 (UniProt Q8N6D5) | inactive: 0.339 | inactive: -0.122 | inactive: 0.011 | inactive: -0.077 | inactive: -0.044 | inactive: 0.279 | inactive: -0.066 | inactive: -0.08 | inactive: -0.126 | inactive: 0.177
23 | ANPEP (UniProt P15144) | inactive: -0.126 | inactive: 0.265 | inactive: -0.096 | inactive: 0.089 | inactive: 0.065 | inactive: -0.096 | inactive: -0.026 | inactive: -0.057 | inactive: 0.086 | inactive: 0.038
24 | AP2S1 (UniProt P53680) | inactive: -0.031 | inactive: 0.037 | inactive: 0.013 | inactive: -0.033 | inactive: -0.159 | inactive: 0.023 | inactive: 0.017 | inactive: -0.061 | inactive: -0.022 | inactive: -0.023
25 | API5 (UniProt Q9BZZ5) | inactive: 0.051 | inactive: -0.047 | inactive: 0.024 | inactive: -0.024 | inactive: -0.055 | inactive: 0.018 | inactive: -0.009 | inactive: 0.042 | inactive: -0.011 | inactive: -0.004
26 | ARFGEF1 (UniProt Q9Y6D6) | inactive: 0.043 | inactive: 0.014 | inactive: 0.111 | inactive: -0.092 | inactive: -0.075 | active: 0.246 | inactive: 0.06 | inactive: 0.016 | inactive: 0.116 | inactive: 0.006
27 | APEH (UniProt P13798) | inactive: -0.011 | inactive: -0.01 | inactive: -0.028 | inactive: -0.008 | inactive: -0.044 | inactive: 0.003 | inactive: -0.011 | inactive: 0.069 | inactive: -0.048 | inactive: 0.052
28 | AP2A2 isoform 2 (UniProt O94973) | inactive: 0.009 | inactive: 0.064 | inactive: 0.003 | inactive: 0.022 | inactive: -0.095 | inactive: 0.083 | inactive: 0.027 | inactive: 0 | inactive: 0.01 | inactive: -0.002
29 | APOE (UniProt P02649) | inactive: 0.017 | inactive: -0.042 | inactive: 0.021 | inactive: -0.051 | inactive: -0.047 | inactive: -0.121 | inactive: 0.082 | inactive: 0.089 | inactive: 0.055 | inactive: 0.021
30 | ARIH1 (UniProt Q9Y4X5) | inactive: 0.043 | inactive: -0.015 | inactive: 0.008 | inactive: -0.036 | inactive: 0.008 | inactive: 0.001 | inactive: -0.026 | inactive: 0.025 | inactive: -0.036 | inactive: 0.021

Part of the list above, with tabs:
Row	Target	log2 fold change [1]	log2 fold change (filanesib)	log2 fold change (zotarolimus)	log2 fold change (idasanutlin)	log2 fold change (alisertib)	log2 fold change [2]	log2 fold change (gefitinib)	log2 fold change [3]	log2 fold change (lapatinib)	log2 fold change (pictilisib)
8	ARFIP1 (UniProt P53367)	inactive: 0.354	inactive: -0.049	inactive: -0.021	inactive: 0.094	inactive: 1.31	inactive: 0.042	inactive: -0.091	inactive: -0.005	inactive: -0.076	inactive: -0.076
9	ANXA11 (UniProt P50995)	inactive: 0.004	inactive: -0.113	inactive: 0.043	inactive: -0.064	inactive: -0.01	inactive: 0.068	inactive: 0.041	inactive: 0.004	inactive: -0.002	inactive: 0.007
